The exact form of at least one protein or probe is not confirmed. A negative result means that nothing was seen under these conditions.
Key:
[1] = test system: CsGLK2 (Camellia sinensis); assay: EMSA; settings: pH and temperature not stated; native PAGE, Beyotime GS009 chemiluminescent EMSA kit, 100-200x cold probe as competitor; recombinant protein; protein details: His (pET32a); label: biotin 3' end of sense strand
[2] = test system: CsGLK1 (Camellia sinensis); assay: EMSA; settings: pH and temperature not stated; native PAGE, Beyotime GS009 chemiluminescent EMSA kit, 100-200x cold probe as competitor; recombinant protein; protein details: His (pET32a); label: biotin 3' end of sense strand

| Sequence | binding result [1] | binding result [2] |
| --- | --- | --- |
| TTAGAAGGAAACCGTGTTTCCTTACGTTTTGGAAGCAATTATATCACTGA (double strand) [CsMYB5b probe 2] | binds | binds |
| TAAAATTTTATATTTAGAGATCCCAAACATTATTCAATTTTGAATCAGGA (double strand) [CsMYB5b probe 1] | binds | binds |
| AATAAAATTGGAACAGTGTGTGTACGTGTAACGTGTTGTAAAGCATCAAC (double strand) [CsMYB5b probe 3] | no binding | no binding |
